# Assay results published in PubChem BioAssay AID504467 (National Center for Advancing Translational Sciences (NCATS), 2011).
# In all, about 330,000 compounds went through this assay and about 7,700 (2.3%) were called active. The inconclusive results got no clear call from the source; some entries with a clear call stand among them for comparison. Calls come from the whole dose curve; as a rule, active = well fitted inhibition curve with a large enough effect; inconclusive = small, poorly fitted or top-dose-only effect, or effect the other way; inactive = flat fitted curve, though single readings scatter. Potencies beside an inconclusive call are fits to weak or partial responses and may not hold up.
# Experiment: qHTS screen for small molecules that inhibit ELG1-dependent DNA repair in human embryonic kidney (HEK293T) cells expressing luciferase-tagged ELG1; note: nearly all actives have a fitted effect of over 55% in size
# Conditions: HEK293T ELG1-luciferase reporter, luminescence, 16 h, DNA damage induced by 5-fluorouridine; activity change, negative = inhibition: at 46.1 µM (top of the series)
# Summary of the method: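 DMSO vehicle served as the neutral condition. Each well held 2,000 cells given 5-fluorouridine plus compound; after 16 hr at 37 °C/5% CO2, ONE-Glo was added and luciferase measured 30 min later.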
# % is set by controls: 0 for no effect and ±100 for the full control effect; potency is the fitted concentration of half-maximal effect.
Compound,"activity change, negative = inhibition",Potency
Cc1ccc(S(=O)(=O)N2CCOCC2)cc1C(=O)NC1=NCCS1,inactive: 0%,
Cc1ccc2cc(CN(CC3CCCO3)C(=O)Nc3ccccc3F)c3nnnn3c2c1 (centres undefined),,"inconclusive: 18.3 µM [activator, partial curve]"
COc1c2c(cc3oc(=O)ccc13)OC(C)(C)C=C2,,"inconclusive: 23.1 µM [activator, partial curve]"
C=C1C(=O)O[C@@H]2C[C@@H](C)[C@@H]3C=CC(=O)[C@@]3(C)[C@@H](OC(C)=O)[C@H]12,,"inconclusive: 5.17 µM [inhibitor, full curve, poor fit]"
CNC(=O)COc1ccccc1C(=O)Nc1ccc2c(c1)oc1ccccc12,,"inconclusive: 29.1 µM [activator, partial curve, poor fit]"
Cc1ccc(NC(=O)c2cc(N(C)C)ccc2[P+](=O)O)cc1,,"inconclusive: 8.2 µM [activator, partial curve]"
Cc1[nH]c2ccccc2c(=O)c1CN1CCCCC1,inactive: 6.6%,
Cc1cccc(OCC(=O)O/N=C(\N)c2ccncc2)c1,,"inconclusive: 29.1 µM [activator, single point]"
Cc1ccc2nc(-c3ccccc3Cl)cc(C(=O)Nc3cc(C)on3)c2c1,,"inconclusive: 14.6 µM [inhibitor, single point]"
O=C(CN1C(=O)c2ccccc2S1(=O)=O)NCCc1ccccc1,,"inconclusive: 25.9 µM [activator, single point]"
Nn1c(SCC(=O)Nc2ccc(F)c(F)c2)nnc1C1CCCCC1,,"inconclusive: 31.6 µM [inhibitor, single point]"
Cc1ccccc1Cn1c(CN2CCc3ccccc3C2)nc2c1c(=O)n(C)c(=O)n2C,,active: 13 µM
COc1ccc(CN=C(N)N=C(N)N)cc1Cl,,"inconclusive: 29.1 µM [inhibitor, single point]"
C#CCN1C(=O)S/C(=C/c2cc(C)n(CC)c2C)C1=O,,"inconclusive: 1.84 µM [activator, full curve]"
O=C(O)Cc1sc(Nc2ccc(Cl)cc2)nc1-c1cccs1,,"inconclusive: 14.6 µM [activator, partial curve]"
COC(=O)C1=C(C)N(CCc2ccc(OC)c(OC)c2)C(=O)/C1=C\c1ccc(O)cc1,,"inconclusive: 8.2 µM [inhibitor, partial curve]"
COc1ccc(-c2c(C)c3ccc(O)cc3oc2=O)cc1,,"inconclusive: 5.8 µM [activator, full curve]"
CCCCC1=NN(C(=O)c2ccco2)C(O)(C(F)(F)F)C1 (centres undefined),inactive: -4.3%,
O=C1c2ccccc2CN1CCSC(=S)N1CCOCC1,,"inconclusive: 9.2 µM [activator, partial curve]"
CCOc1cc(/C=N/NC(=O)c2cccc([N+](=O)[O-])c2)ccc1OS(=O)(=O)c1ccccc1,,"inconclusive: 35.5 µM [inhibitor, single point]"
CCc1ccc(Nc2c([N+](=O)[O-])c(=O)oc3ccccc23)cc1,,"inconclusive: 8.2 µM [inhibitor, partial curve, poor fit]"
O=C(c1ccccc1)c1ccc2nc(N3CCCCC3)c3nncn3c2c1,,"inconclusive: 14.6 µM [inhibitor, partial curve, poor fit]"
COc1ccc(Nc2nc3ccccc3nc2NS(=O)(=O)c2ccc(NC(C)=O)cc2)cc1,,"inconclusive: 18.3 µM [activator, single point]"

Compound,"activity change, negative = inhibition",Potency
COc1ccc(CSc2cccc3cccnc23)cc1[N+](=O)[O-],inactive: 28%,
Cc1cc(C(=O)Nc2nncs2)oc1C,inactive: 21.1%,
Cn1cc(S(=O)(=O)N2CCOCC2)cc1C(=O)Nc1cccc(Cl)c1,inactive: -0.491%,
Cc1ccc(-c2c[n+](CC(=O)Nc3c(C)cccc3C)c3n2CCC3)cc1,,"inconclusive: 0.164 µM [activator, full curve]"
CCOC(=O)c1oc2ccccc2c1CSc1nnnn1-c1ccc(OC)cc1,,"inconclusive: 25.9 µM [inhibitor, single point]"
Cc1cc(C)c(CN2CCN(C(=O)Cn3cnc4c(NCc5ccccc5)ncnc43)CC2)c(C)c1,,active: 1.03 µM
C[C@@H]1CCCCCCCCC(=O)OCCN1C(=O)OC(C)(C)C,inactive: 19.3%,
Nc1nnc(SCC(=O)Nc2cccc(S(=O)(=O)N3CCOCC3)c2)s1,,"inconclusive: 20.6 µM [activator, single point]"
Cc1ncc([N+](=O)[O-])n1Cc1ccccc1F,inactive: 7.98%,
CC(=O)Nc1ccc(NC(=O)C(C)Oc2ccc(Cl)cc2Cl)cc1 (centres undefined),inactive: 9.04%,
CCOc1ccc(NC(=S)N=Nc2c(O)[nH]c3ccccc23)cc1,,"inconclusive: 13 µM [inhibitor, partial curve]"
COc1ccc(OC)c(NC(=O)c2nnn(Cc3ccccc3C)c2N)c1,,active: 11.2 µM
O=C(CSc1nnnn1C1CCCCC1)Nc1cccc(NC(=O)c2ccco2)c1,,"inconclusive: 29.1 µM [inhibitor, single point]"
Cc1nnc2sc(SCc3ccccc3)nn2c1=O,,"inconclusive: 14.6 µM [activator, single point]"
Cc1ccc(NC(=O)NC2(C(=O)NCc3ccccc3)CCCCC2)cc1,inactive: 4.94%,
Cc1sc2nc[nH]c(=S)c2c1-c1ccccc1,,"inconclusive: 20.6 µM [inhibitor, partial curve, poor fit]"
Cc1ccc(NC(=O)c2oc3ccccc3c2NC(=O)C2CCCO2)cc1C (centres undefined),,"inconclusive: 2.06 µM [activator, partial curve]"
C#CCOC(=O)CN1C(=O)c2cccc3cccc(c23)C1=O,inactive: 10.6%,
Cc1nnnn1/C(=C\c1ccccc1)C(=O)OCC(=O)NC(C)(C)C,,active: 16.4 µM
Cc1[nH]ncc1N=Cc1ccc([N+](=O)[O-])cc1,,"inconclusive: 0.731 µM [inhibitor, partial curve, poor fit]"
Cc1ccc(NC(=O)CSc2nnc(Cc3csc(C)n3)o2)c(C)c1,inactive: 7.89%,
COC(=O)c1sc2ccccc2c1-n1cccc1C(=O)C(=O)Nc1ccc(C)cc1,,"inconclusive: 29.1 µM [inhibitor, single point]"
CC(=O)c1ccc(NC(=S)NC(=O)/C=C/c2ccco2)cc1,,"inconclusive: 10.3 µM [activator, partial curve, poor fit]"

# Compounds shown so far that have fluorine:
Compound,"activity change, negative = inhibition",Potency
Cc1ccc2cc(CN(CC3CCCO3)C(=O)Nc3ccccc3F)c3nnnn3c2c1 (centres undefined),,"inconclusive: 18.3 µM [activator, partial curve]"
Nn1c(SCC(=O)Nc2ccc(F)c(F)c2)nnc1C1CCCCC1,,"inconclusive: 31.6 µM [inhibitor, single point]"
CCCCC1=NN(C(=O)c2ccco2)C(O)(C(F)(F)F)C1 (centres undefined),inactive: -4.3%,
Cc1ncc([N+](=O)[O-])n1Cc1ccccc1F,inactive: 7.98%,

# Later entries.

Compound,"activity change, negative = inhibition",Potency
COc1cccc(NC(=O)c2ccccc2SC)c1,,"inconclusive: 13 µM [activator, partial curve, poor fit]"
COc1cccc(C(=O)N(Cc2ccco2)Cc2cc3cccc(C)c3[nH]c2=O)c1,,"inconclusive: 20.6 µM [inhibitor, single point]"
c1ccc(CCNc2ncnc3nc[nH]c23)cc1,,"inconclusive: 20.6 µM [inhibitor, single point]"
Fc1ccc2nc3n(c2c1F)CCCCCC3,,"inconclusive: 20.6 µM [inhibitor, partial curve, poor fit]"
COc1ccc(C(=O)C2CCCN(C(=O)c3c4c(nn3C)CCCC4)C2)cc1F (centres undefined),,"inconclusive: 23.1 µM [inhibitor, partial curve, poor fit]"
Cc1cccc2c1N(CCCOc1ccccc1)C(=O)C2=O,inactive: -4.98%,
C/C(=N/NC(=O)c1ccccc1O)c1ccc(N2C(=O)C3CCCCC3C2=O)cc1 (centres undefined),inactive: -4.07%,
O=C(Nc1nc(-c2ccccc2)cs1)C1CCCO1 (centres undefined),,"inconclusive: 7.94 µM [activator, partial curve, poor fit]"
COc1ccc(OCc2nnc(SCC(=O)Nc3cccc(C(C)=O)c3)o2)cc1,inactive: 1.5%,
COc1ccc2nc(NC(=O)C3CCCN(S(=O)(=O)c4c(C)noc4C)C3)sc2c1 (centres undefined),,"inconclusive: 23.1 µM [inhibitor, single point]"
CCOc1ccc(NC(=O)C2CCCN(c3c(CC)c(C)nc4ncnn34)C2)cc1 (centres undefined),,"inconclusive: 13 µM [inhibitor, partial curve, poor fit]"
COc1ccc(-n2nc(C(=O)N3CCC(N4CCCCC4)CC3)c3c4ccccc4n(C)c3c2=O)cc1,,"inconclusive: 9.2 µM [activator, partial curve, poor fit]"
COc1cccc(/C=C2\SC(N3CCC(C)CC3)=NC2=O)c1OC,inactive: 19.3%,
CCCc1c(C(=O)Nc2ccc(F)cc2)cnn1-c1ccccc1,,"inconclusive: 29.1 µM [inhibitor, single point]"
CCOc1ccc(-c2c(C(=O)N/N=C(\C)c3cccnc3)nnn2-c2nonc2N)cc1,,"inconclusive: 18.3 µM [activator, single point]"
CCOc1cc(N2CCOCC2)c(OCC)cc1NC(=O)c1nc2nccc(C)n2n1,,"inconclusive: 23.1 µM [inhibitor, partial curve]"
S=C(NCCCN1CCOCC1)N1CCN(c2nc(-c3ccccc3)cs2)CC1,,"inconclusive: 29.1 µM [inhibitor, single point]"
Cc1cc(C)c(S(=O)(=O)NCc2ccncc2)c(C)c1,,"inconclusive: 1.3 µM [inhibitor, full curve, poor fit]"
O=C(/C=C/c1ccc(Cl)c(Cl)c1)NC1=NCCS1,,"inconclusive: 20.6 µM [activator, partial curve]"
COc1ccccc1NS(=O)(=O)c1cccc(C(=O)N/N=C/c2c(C)nn(-c3ccccc3)c2N2CCCC2)c1,,"inconclusive: 18.4 µM [inhibitor, single point]"
Cc1ccc(Nc2n[nH]c(C)c2[N+](=O)[O-])c(C)c1,,"inconclusive: 20.6 µM [activator, partial curve]"
CC(=O)OCCc1[nH]c2ccccc2c1C,inactive: -8.31%,
COc1cccc(Oc2nc(N)ncc2[N+](=O)[O-])c1,inactive: -2.21%,
